In patent US20260132217A1 (UNIVERSITE D AIX MARSEILLE, published 2026) one finds binding data, which are given here for 3 substances.

Protein sequences, listed by entry. Tags and fused reporters are not part of them. Lines headed by an entry give the natural chain unless they say otherwise; changes in a name come on top.
UniProt P06756: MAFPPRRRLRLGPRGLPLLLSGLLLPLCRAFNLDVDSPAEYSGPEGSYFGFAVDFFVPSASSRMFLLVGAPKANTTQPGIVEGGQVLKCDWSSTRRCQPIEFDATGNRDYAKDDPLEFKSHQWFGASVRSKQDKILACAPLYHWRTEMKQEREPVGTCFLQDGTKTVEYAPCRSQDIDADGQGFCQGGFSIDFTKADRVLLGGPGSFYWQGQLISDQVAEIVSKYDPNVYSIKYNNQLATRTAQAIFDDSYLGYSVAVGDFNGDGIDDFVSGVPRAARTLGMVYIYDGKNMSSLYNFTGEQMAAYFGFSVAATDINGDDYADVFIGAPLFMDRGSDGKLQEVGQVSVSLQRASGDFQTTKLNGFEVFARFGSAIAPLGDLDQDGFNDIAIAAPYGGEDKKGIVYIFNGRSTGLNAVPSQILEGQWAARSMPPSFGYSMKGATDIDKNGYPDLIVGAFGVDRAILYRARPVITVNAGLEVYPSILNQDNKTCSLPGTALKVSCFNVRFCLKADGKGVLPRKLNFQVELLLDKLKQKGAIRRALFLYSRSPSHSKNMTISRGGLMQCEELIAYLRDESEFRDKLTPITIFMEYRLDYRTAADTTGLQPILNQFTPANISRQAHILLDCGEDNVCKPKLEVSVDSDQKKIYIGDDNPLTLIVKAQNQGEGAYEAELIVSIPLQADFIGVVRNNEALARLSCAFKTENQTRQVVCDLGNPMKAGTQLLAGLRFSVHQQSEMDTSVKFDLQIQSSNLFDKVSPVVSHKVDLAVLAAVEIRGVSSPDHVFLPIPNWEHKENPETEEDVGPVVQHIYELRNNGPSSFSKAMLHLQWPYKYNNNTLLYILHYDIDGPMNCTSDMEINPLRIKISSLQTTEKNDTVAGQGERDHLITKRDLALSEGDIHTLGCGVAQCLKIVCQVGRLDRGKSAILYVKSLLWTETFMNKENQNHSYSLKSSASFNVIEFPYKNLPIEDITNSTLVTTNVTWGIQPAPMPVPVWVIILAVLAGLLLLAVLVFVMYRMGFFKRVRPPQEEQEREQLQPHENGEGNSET
UniProt P05106: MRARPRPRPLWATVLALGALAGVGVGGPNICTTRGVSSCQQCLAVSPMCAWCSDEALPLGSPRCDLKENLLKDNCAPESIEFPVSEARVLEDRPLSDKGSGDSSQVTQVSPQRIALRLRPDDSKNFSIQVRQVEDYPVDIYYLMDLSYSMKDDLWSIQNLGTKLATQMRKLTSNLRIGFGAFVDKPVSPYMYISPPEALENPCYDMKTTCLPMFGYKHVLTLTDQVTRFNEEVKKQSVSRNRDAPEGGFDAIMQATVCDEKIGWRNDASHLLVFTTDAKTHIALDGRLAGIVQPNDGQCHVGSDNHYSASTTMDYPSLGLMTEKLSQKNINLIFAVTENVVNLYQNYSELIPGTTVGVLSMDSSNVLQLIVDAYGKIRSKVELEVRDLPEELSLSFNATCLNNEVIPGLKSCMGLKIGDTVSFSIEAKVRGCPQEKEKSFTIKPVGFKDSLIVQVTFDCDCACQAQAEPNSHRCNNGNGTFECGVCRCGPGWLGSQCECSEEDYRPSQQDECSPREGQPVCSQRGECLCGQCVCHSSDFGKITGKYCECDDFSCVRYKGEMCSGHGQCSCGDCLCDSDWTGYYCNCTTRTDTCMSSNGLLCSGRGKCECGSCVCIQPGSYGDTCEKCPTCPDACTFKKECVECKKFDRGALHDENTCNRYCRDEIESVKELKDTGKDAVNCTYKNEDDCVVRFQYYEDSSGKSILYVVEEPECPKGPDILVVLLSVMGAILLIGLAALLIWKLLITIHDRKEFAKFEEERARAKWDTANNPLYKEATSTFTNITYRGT

Assay [1] has as its target T1, membrane CD146 on cells (U87, U373, HUVEC) (human) (UniProt P43121).
T1 sequence (looked up): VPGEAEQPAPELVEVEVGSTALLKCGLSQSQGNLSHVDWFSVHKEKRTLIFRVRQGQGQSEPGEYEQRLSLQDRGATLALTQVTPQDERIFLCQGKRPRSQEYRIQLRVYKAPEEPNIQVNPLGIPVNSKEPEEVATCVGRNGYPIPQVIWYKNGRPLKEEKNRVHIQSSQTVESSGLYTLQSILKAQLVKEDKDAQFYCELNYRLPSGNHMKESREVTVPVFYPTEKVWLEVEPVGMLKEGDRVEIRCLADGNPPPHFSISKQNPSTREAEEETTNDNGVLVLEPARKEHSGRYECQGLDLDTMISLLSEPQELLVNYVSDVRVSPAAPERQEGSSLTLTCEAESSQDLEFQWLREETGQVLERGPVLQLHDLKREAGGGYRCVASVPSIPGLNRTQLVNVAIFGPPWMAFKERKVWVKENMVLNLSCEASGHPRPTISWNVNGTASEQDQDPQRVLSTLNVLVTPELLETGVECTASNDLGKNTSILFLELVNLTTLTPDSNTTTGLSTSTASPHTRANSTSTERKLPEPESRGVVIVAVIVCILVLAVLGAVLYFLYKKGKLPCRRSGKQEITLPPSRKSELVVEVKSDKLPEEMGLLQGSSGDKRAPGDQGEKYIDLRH
Briefly: co-immunoprecipitation with anti-CD146 antibody from HUVEC, western blot. (In general: In western blotting, separated proteins are transferred to a membrane and probed.)

Assay [2] deals with T2, integrin αvβ3 on cells (U87, U373, HUVEC; CHO cells transfected with αv and β3 plasmids) (human) (UniProt P06756+P05106). Described as above.
For assay [3], the target named is T2, integrin αvβ3 on cells (U87, U373, HUVEC; CHO cells transfected with αv and β3 plasmids) (human). Nature of the assay: co-immunoprecipitation with anti-CD146 S-Endo1 from U87 cells (reproduced in U373), western blot.
Assay [4] has the same target. Nature of the assay: sCD146-FITC binding to HUVEC with or without β3 siRNA, flow cytometry. Background: Flow cytometry measures light scatter and fluorescence of single cells or particles in a stream.
For assay [5] the target is unchanged. Briefly: co-immunoprecipitation from CHO cells with anti-αvβ3 antibody.
For assay [6] the target is unchanged. Nature of the assay: flow cytometry and immunofluorescence on CHO cells transfected with αvβ3.
Assay [7] has the same target. Nature of the assay: sCD146-FITC binding to U87 and U373 cells after siRNA knock-down.

No constants are given. Whether binding was seen depends on the method and setting. For some of these results: In cells and extracts the contact can be indirect. Some entries that bind do so weakly or less than the wild type.

With “integrin αvβ3 on cells (U87, U373, HUVEC; CHO cells transfected with αv and β3 plasmids) (from UniProt P06756 31-1048; P05106 27-788) (receptor)”, the binding result in assay [1] is “binds”.
On to “membrane CD146 on cells (U87, U373, HUVEC) (from UniProt P43121 24-646) (receptor)”, for which the binding entry in assay [2] and in assay [3] was “binds” each time.
Take “soluble CD146 (sCD146), recombinant human sCD146 (from UniProt P43121 24-559) (ligand)”: the binding entry in assay [4], in assay [5], in assay [6] and in assay [7] was “binds” throughout.
